# Data reported in paper doi:10.1101/2022.10.12.511875.
# These are yes or no findings as the source states them, for the method shown. For some assays here: Binding seen in cells or lysates may run through a third protein. For some assays here: A result given as binding can be weak or reduced; the word gives no strength. Tags and fused reporters may be left off the sequences shown.
# T1: protochlorophyllide oxidoreductase A (PORA), yeast split-ubiquitin fusion (Arabidopsis thaliana) (UniProt Q42536)
# T1 sequence: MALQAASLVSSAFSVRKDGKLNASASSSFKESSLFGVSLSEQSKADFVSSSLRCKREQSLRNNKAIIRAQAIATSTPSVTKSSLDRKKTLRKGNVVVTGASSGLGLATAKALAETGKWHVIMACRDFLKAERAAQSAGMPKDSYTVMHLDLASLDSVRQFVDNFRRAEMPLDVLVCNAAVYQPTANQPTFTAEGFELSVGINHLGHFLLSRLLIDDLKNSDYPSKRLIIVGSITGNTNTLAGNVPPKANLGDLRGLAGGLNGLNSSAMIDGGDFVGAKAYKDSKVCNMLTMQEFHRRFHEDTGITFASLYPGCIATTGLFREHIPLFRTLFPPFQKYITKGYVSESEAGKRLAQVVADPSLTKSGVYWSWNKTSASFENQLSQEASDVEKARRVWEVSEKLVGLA
# T2: protochlorophyllide oxidoreductase C (PORC), yeast split-ubiquitin fusion (Arabidopsis thaliana) (UniProt O48741)
# T2 sequence: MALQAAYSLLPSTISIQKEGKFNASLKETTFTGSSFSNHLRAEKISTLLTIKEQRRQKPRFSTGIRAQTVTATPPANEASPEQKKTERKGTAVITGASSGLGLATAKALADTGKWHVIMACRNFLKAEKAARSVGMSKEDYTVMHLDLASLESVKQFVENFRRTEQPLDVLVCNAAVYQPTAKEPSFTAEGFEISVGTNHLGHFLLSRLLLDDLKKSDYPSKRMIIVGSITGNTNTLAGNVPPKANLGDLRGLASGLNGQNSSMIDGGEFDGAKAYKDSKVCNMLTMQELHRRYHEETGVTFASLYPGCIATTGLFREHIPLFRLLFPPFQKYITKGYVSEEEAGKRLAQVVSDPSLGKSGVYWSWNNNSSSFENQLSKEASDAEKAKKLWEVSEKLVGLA
# T3: protochlorophyllide oxidoreductase B (PORB), yeast split-ubiquitin fusion (Arabidopsis thaliana) (UniProt P21218)
# T3 sequence: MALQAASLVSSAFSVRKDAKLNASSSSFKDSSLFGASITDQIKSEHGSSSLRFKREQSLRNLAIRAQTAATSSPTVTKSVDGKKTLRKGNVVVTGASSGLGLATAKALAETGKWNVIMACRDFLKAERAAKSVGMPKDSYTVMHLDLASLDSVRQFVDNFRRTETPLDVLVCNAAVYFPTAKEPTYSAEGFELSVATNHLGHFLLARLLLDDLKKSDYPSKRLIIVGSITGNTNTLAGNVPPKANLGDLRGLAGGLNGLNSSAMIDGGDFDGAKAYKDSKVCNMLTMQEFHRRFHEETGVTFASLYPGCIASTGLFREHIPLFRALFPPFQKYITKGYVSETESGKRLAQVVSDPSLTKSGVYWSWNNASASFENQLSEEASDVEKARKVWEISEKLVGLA
# T4: FLU (FLUORESCENT IN BLUE LIGHT), BiFC fusion (Arabidopsis thaliana) (UniProt Q940U6)
# T4 sequence: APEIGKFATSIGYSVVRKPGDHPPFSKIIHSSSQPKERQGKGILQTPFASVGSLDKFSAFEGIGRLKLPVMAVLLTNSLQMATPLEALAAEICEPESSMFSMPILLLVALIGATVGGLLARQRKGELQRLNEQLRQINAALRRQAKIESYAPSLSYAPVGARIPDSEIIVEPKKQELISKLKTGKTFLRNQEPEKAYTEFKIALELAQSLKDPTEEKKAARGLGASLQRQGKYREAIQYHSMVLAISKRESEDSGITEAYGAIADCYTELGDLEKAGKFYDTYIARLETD
# Experiments:
# [1] = biological target: T1, protochlorophyllide oxidoreductase A (PORA), yeast split-ubiquitin fusion (Arabidopsis thaliana); experiment: two-hybrid
# [2] = biological target: T2, protochlorophyllide oxidoreductase C (PORC), yeast split-ubiquitin fusion (Arabidopsis thaliana); experiment: two-hybrid
# [3] = biological target: T3, protochlorophyllide oxidoreductase B (PORB), yeast split-ubiquitin fusion (Arabidopsis thaliana); experiment: two-hybrid
# [4] = biological target: T4, FLU (FLUORESCENT IN BLUE LIGHT), BiFC fusion (Arabidopsis thaliana); experiment: split reporter
# [5] = biological target: glutamyl-tRNA reductase (GluTR), BiFC fusion (Arabidopsis thaliana); experiment: split reporter
# [6] = biological target: MgPME cyclase subunit CHL27, yeast split-ubiquitin fusion (Arabidopsis thaliana); experiment: two-hybrid
# [7] = biological target: Mg protoporphyrin monomethylester (MgPME) cyclase subunit CHL27, BiFC fusion (Arabidopsis thaliana); experiment: split reporter
molecule,measurement,setting,value
"FC2ΔCAB, yeast split-ubiquitin fusion (Arabidopsis thaliana) (domain or fragment)",binding,[1],no binding
same,binding,[2],no binding
same,binding,[3],no binding
"glutamyl-tRNA reductase (GluTR), BiFC fusion (Arabidopsis thaliana) (enzyme)",binding,[4],binds
"protochlorophyllide oxidoreductase B (PORB), BiFC fusion (enzyme, UniProt P21218 67-401) QTAATSSPTVTKSVDGKKTLRKGNVVVTGASSGLGLATAKALAETGKWNVIMACRDFLKAERAAKSVGMPKDSYTVMHLDLASLDSVRQFVDNFRRTETPLDVLVCNAAVYFPTAKEPTYSAEGFELSVATNHLGHFLLARLLLDDLKKSDYPSKRLIIVGSITGNTNTLAGNVPPKANLGDLRGLAGGLNGLNSSAMIDGGDFDGAKAYKDSKVCNMLTMQEFHRRFHEETGVTFASLYPGCIASTGLFREHIPLFRALFPPFQKYITKGYVSETESGKRLAQVVSDPSLTKSGVYWSWNNASASFENQLSEEASDVEKARKVWEISEKLVGLA",binding,[5],binds
"ferrochelatase 2 (FC2), yeast split-ubiquitin fusion (enzyme, UniProt O04921 1-512) MNCPAMTASPSSSSSSSYSTFRPPPPLLPQLSNDSQRSVVMHCTRLPFEAFAATSSNRLLGKHSLPLRAALVTSNPLNISSSSVISDAISSSSVITDDAKIGVLLLNLGGPETLDDVQPFLFNLFADPDIIRLPPVFQFLQKPLAQFISVARAPKSKEGYASIGGGSPLRHITDAQAEELRKCLWEKNVPAKVYVGMRYWHPFTEEAIEQIKRDGITKLVVLPLYPQFSISTSGSSLRLLERIFREDEYLVNMQHTVIPSWYQREGYIKAMANLIQSELGKFGSPNQVVIFFSAHGVPLAYVEEAGDPYKAEMEECVDLIMEELDKRKITNAYTLAYQSRVGPVEWLKPYTEEAITELGKKGVENLLAVPISFVSEHIETLEEIDVEYKELALKSGIKNWGRVPALGTEPMFISDLADAVVESLPYVGAMAVSNLEARQSLVPLGSVEELLATYDSQRRELPAPVTMWEWGWTKSAETWNGRAAMLAVLALLVLEVTTGKGFLHQWGILPSL",binding,[6],no binding
"ferrochelatase 2 (FC2), BiFC fusion (enzyme, UniProt O04921 84-512) VISDAISSSSVITDDAKIGVLLLNLGGPETLDDVQPFLFNLFADPDIIRLPPVFQFLQKPLAQFISVARAPKSKEGYASIGGGSPLRHITDAQAEELRKCLWEKNVPAKVYVGMRYWHPFTEEAIEQIKRDGITKLVVLPLYPQFSISTSGSSLRLLERIFREDEYLVNMQHTVIPSWYQREGYIKAMANLIQSELGKFGSPNQVVIFFSAHGVPLAYVEEAGDPYKAEMEECVDLIMEELDKRKITNAYTLAYQSRVGPVEWLKPYTEEAITELGKKGVENLLAVPISFVSEHIETLEEIDVEYKELALKSGIKNWGRVPALGTEPMFISDLADAVVESLPYVGAMAVSNLEARQSLVPLGSVEELLATYDSQRRELPAPVTMWEWGWTKSAETWNGRAAMLAVLALLVLEVTTGKGFLHQWGILPSL",binding,[5],binds
same,binding,[7],no binding
